No constants are given. Whether binding was seen depends on the method and setting. In cells and extracts the contact can be indirect. Some entries that bind do so weakly or less than the wild type.
Biological target: pro-caspase-1 (human) (UniProt P29466)
Test: GST-POP1 pull-down from THP-1 lysates; pro-caspase-1 co-purified through ASC (FIG. 18a)

Protein sequences, listed by entry. Tags and fused reporters are not part of them.
UniProt P29466: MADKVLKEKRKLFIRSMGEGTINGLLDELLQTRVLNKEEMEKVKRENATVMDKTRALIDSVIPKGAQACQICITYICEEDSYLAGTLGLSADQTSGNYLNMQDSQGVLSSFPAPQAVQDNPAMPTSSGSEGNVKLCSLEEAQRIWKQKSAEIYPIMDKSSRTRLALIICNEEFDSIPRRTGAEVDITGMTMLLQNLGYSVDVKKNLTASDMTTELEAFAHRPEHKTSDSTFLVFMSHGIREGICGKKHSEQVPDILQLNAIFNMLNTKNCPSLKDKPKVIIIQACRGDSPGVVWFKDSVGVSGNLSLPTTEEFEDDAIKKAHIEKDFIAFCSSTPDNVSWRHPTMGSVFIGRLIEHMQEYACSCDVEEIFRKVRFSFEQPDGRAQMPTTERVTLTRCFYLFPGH
UniProt Q9ULZ3: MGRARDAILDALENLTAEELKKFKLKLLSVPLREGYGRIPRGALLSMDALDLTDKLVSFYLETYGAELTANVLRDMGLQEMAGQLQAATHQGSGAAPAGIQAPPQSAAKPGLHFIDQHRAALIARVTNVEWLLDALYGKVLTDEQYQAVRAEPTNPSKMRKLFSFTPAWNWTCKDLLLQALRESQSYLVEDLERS

binding: binds
Substance: ASC (from UniProt Q9ULZ3 1-195)

Source: patent US20160354437A1
